PubChem BioAssay AID1259254 | NCATS, 2017

Assay: 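Genome-wide screen for genes that prevent DNA re-replication in cancer cells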 (primary screen)
Cell system: human HCT116 colorectal cancer cells
Reagents: single siRNA against human genes
Timing: 3 days
Measured: 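Nuclei stained with Hoechst and imaged; cell-cycle phase assigned by DNA content; G2 share scaled per plate, non-targeting siRNA 0%, GMNN siRNA 100%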
Reading the numbers: G2 robust z-score: higher = more G2 cells, more excess DNA replication
Rule for the call: 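Active siRNAs have a G2 robust z of 5 or more median absolute deviations over the median, which in these data means about 38% or higher of GMNN control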
The whole screen tested about 59,000 reagents; shown is a random part of them. About 1,550 of them (2.6%) were called active. 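G2 share is only a proxy for re-replication; each gene was hit by three separate siRNAs, and active genes were retested.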 The numbers tell different reagents against one gene apart. Not all columns of the deposit are shown. Not given: the amount of reagent.

gene knocked down	reagent no.	G2 robust z-score	call
GTF2B	1	2.21	inactive
GTF2B	2	0.0233	inactive
GTF2B	3	2.15	inactive
ANKRD2	1	-1.28	inactive
ANKRD2	2	-0.128	inactive
ANKRD2	3	-0.255	inactive
PHGR1	1	1.05	inactive
PHGR1	2	-0.548	inactive
PHGR1	3	0.233	inactive
LMTK3	1	0.79	inactive
LMTK3	2	-0.803	inactive
LMTK3	3	-0.317	inactive
STX18	1	0.136	inactive
STX18	2	-0.284	inactive
STX18	3	-0.478	inactive
UBAP1L	1	-0.431	inactive
UBAP1L	2	-0.233	inactive
UBAP1L	3	-0.934	inactive
ACBD4	1	-0.34	inactive
ACBD4	2	-0.195	inactive
ACBD4	3	1.68	inactive
OR10R2	1	1.83	inactive
OR10R2	2	1.3	inactive
OR10R2	3	0.476	inactive
HPS4	1	-0.281	inactive
HPS4	2	-0.565	inactive
HPS4	3	0.204	inactive
GALNT17	1	3.18	inactive
GALNT17	2	-0.874	inactive
GALNT17	3	0.788	inactive
FAM32A	1	0.128	inactive
FAM32A	2	0.0566	inactive
FAM32A	3	-0.919	inactive
BASP1	1	2.86	inactive
BASP1	2	-0.343	inactive
BASP1	3	-0.0225	inactive
ADAM20	1	3.61	inactive
ADAM20	2	-0.34	inactive
ADAM20	3	-0.496	inactive
PRR19	1	-0.3	inactive
PRR19	2	1.36	inactive
PRR19	3	-0.786	inactive

4 entries from above, sorted by “G2 robust z-score”, lowest first:
gene knocked down	reagent no.	G2 robust z-score	call
FAM32A	3	-0.919	inactive
FAM32A	2	0.0566	inactive
FAM32A	1	0.128	inactive
GALNT17	3	0.788	inactive

The listing continues:
gene knocked down	reagent no.	G2 robust z-score	call
SSX6P	1	1.21	inactive
SSX6P	2	-1.2	inactive
SSX6P	3	-0.306	inactive
NFRKB	1	-0.789	inactive
NFRKB	2	0.165	inactive
NFRKB	3	2.23	inactive
SH2D3C	1	-0.822	inactive
SH2D3C	2	-0.246	inactive
SH2D3C	3	0.247	inactive
FRMD4A	1	0.217	inactive
FRMD4A	2	-1.19	inactive
FRMD4A	3	1.79	inactive
DCX	1	-0.565	inactive
DCX	2	0.627	inactive
DCX	3	0.611	inactive
NT5DC3	1	3.1	inactive
NT5DC3	2	-0.745	inactive
NT5DC3	3	-0.41	inactive
FANCG	1	1.7	inactive
FANCG	2	0.745	inactive
FANCG	3	-0.647	inactive
ITIH3	1	-0.411	inactive
ITIH3	2	-1.34	inactive
ITIH3	3	-1.44	inactive
SLC25A16	1	0.309	inactive
SLC25A16	2	-0.12	inactive
SLC25A16	3	4.41	inactive
